Assay results taken from publication PMC5440813.
These are yes or no findings as the source states them, for the method shown. In cells and extracts the contact can be indirect. A result given as binding can be weak or reduced; the word gives no strength.

The chains behind the UniProt entries cited, without tags or fusion partners. Where a name states a change or a piece, a line headed by the entry shows the natural chain unless it says otherwise. Residues count along the entry.
UniProt Q9LKA3: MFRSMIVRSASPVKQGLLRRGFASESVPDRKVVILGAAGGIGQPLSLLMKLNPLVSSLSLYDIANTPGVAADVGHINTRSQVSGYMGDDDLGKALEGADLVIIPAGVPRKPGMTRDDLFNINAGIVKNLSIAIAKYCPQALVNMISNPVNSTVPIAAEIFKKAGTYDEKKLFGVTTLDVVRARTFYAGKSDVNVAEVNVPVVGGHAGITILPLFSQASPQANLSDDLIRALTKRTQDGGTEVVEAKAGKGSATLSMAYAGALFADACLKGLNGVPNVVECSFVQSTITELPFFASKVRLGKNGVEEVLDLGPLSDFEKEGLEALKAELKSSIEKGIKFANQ
UniProt P93033, residues 29-492: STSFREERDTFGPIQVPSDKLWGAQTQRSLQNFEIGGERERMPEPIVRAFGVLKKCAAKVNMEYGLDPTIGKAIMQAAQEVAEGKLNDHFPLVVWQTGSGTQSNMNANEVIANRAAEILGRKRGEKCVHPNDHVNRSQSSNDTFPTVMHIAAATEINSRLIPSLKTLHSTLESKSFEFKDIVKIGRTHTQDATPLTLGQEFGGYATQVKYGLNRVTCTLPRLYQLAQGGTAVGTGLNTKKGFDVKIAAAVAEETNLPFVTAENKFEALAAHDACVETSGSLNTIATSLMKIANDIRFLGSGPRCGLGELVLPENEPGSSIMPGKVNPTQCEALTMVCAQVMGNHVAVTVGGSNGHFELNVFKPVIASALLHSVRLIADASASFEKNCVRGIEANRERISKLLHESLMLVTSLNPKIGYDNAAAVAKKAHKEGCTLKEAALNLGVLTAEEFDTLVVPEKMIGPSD
UniProt Q9ZP06: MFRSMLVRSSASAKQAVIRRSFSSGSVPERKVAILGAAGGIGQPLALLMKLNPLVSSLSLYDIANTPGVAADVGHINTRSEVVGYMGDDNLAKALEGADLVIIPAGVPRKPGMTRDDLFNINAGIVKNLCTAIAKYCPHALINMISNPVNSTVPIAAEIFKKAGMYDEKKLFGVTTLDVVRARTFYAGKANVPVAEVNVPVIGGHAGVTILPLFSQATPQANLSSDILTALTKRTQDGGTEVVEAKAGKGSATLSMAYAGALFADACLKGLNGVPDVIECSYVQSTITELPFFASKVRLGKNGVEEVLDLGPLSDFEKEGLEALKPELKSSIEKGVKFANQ

How the values were obtained:
[1] = target: MDH2-VYNE (Arabidopsis thaliana) (UniProt Q9LKA3); assay: split reporter; BiFC: SCYCE- and VYNE-tagged proteins transiently expressed in Arabidopsis mesophyll protoplasts, confocal microscopy with MitoTracker orange
[2] = target: T1, CSY4-SCYCE (Arabidopsis thaliana) (UniProt P20115); assay: as above
T1 sequence: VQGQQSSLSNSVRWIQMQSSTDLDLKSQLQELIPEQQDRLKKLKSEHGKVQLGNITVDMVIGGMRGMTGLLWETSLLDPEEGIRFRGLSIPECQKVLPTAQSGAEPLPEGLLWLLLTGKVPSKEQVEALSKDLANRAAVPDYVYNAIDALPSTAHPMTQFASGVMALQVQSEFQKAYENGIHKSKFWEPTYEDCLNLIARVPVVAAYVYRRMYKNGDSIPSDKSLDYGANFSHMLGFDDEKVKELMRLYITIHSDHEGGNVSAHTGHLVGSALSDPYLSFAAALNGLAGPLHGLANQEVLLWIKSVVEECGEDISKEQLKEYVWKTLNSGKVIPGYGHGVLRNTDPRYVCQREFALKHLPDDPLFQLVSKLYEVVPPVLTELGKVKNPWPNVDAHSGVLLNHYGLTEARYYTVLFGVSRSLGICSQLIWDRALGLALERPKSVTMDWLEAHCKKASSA

## FUM1-SCYCE (from UniProt P93033 29-492) (enzyme)
[1]
  binding: binds

## MDH1-VYNE (from UniProt Q9ZP06) (enzyme)
[2]
  binding: binds

## MDH2-VYNE (from UniProt Q9LKA3) (enzyme)
[2]
  binding: binds
